Experimental data from patent publication US20040234981A1, “Method of determining dna base sequence” (priority 2001, published 2004).

Tested on: pBluescriptII DNA
Assay: Transcriptional sequencing with mutant enzyme, gel images and base calls (ABI 377 XL)
Assay type: biochemical
Settings: 50 units enzyme, 60 min, 37° C, FIG. 4
Description: The reaction conditions conformed to the method described by Sasaki et al. (Sasaki, N., et al., Gene, 222 (1): 17-24 (1998)). That is, employing plasmid pBluescriptII DNA having a promoter for T7RNA polymerase as template, an in vitro transcription reaction was conducted for 60 min while maintaining 37° C. The unreacted dye terminator remaining in the reaction product following the reaction was removed, and analysis was conducted with an ABI PRISM 377XL DNA sequencer. […] However, when T7 RNA polymerase F644Y/Δ2 was employed, individual sharp RNA separation images were obtained for the transcription products and there was little noise. […]
The transcriptional sequencing reaction was conducted in accordance with the method of Sasaki et al. (Sasaki, N., et al. Gene, 222(1): 17-24 (1998)). […] The dried product was dissolved in 6 μL of formamide/EDTA/Bluedextran loading buffer according to Version 1.0 of the instruction manual of an ABI Prism 377XL DNA Sequencer made by Perkins Elmer Japan, Ltd. and 2 μL thereof were analyzed by the ABI Prism 377XL DNA Sequencer. […] Since noise was low in base sequence analysis, this property made it possible to anticipate that the length of bases that it would be possible to read in a single reaction with an accurate base call would increase. […]

Molecule | Noise in separation of RNA fragments (gel image)
T7 RNA polymerase F644Y: mutant T7 RNA polymerase, tyrosine substituted for phenylalanine at residue 644; plasmid pT7RF644Y | high level of noise; also recorded: the noise level was high
T7 RNA polymerase F644Y/Δ2: T7 RNA polymerase F644Y deficient in amino acids 172 and 173 and 178 through 180; plasmid pT7RF644Y/Δ2 (protein, UniProt P00573 1-883, looked up, variant F644Y del172-173 del178-180) T7 RNA polymerase: MNTINIAKNDFSDIELAAIPFNTLADHYGERLAREQLALEHESYEMGEARFRKMFERQLKAGEVADNAAAKPLITTLLPKMIARINDWFEEVKAKRGKRPTAFQFLQEIKPEAVAYITIKTTLACLTSADNTTVQAVASAIGRAIEDEARFGRIRDLEAKHFKKNVEEQLNVGHVAFMQVVEADMLSKGLLGGEAWSSWHKEDSIHVGVRCIEMLIESTGMVSLHRQNAGVVGQDSETIELAPEYAEAIATRAGALAGISPMFQPCVVPPKPWTGITGGGYWANGRRPLALVRTHSKKALMRYEDVYMPEVYKAINIAQNTAWKINKKVLAVANVITKWKHCPVEDIPAIEREELPMKPEDIDMNPEALTAWKRAAAAVYRKDKARKSRRISLEFMLEQANKFANHKAIWFPYNMDWRGRVYAVSMFNPQGNDMTKGLLTLAKGKPIGKEGYYWLKIHGANCAGVDKVPFPERIKFIEENHENIMACAKSPLENTWWAEQDSPFCFLAFCFEYAGVQHHGLSYNCSLPLAFDGSCSGIQHFSAMLRDEVGGRAVNLLPSETVQDIYGIVAKKVNEILQADAINGTDNEVVTVTDENTGEISEKVKLGTKALAGQWLAYGVTRSVTKRSVMTLAYGSKEYGFRQQVLEDTIQPAIDSGKGLMFTQPNQAAGYMAKLIWESVSVTVVAAVEAMNWLKSAAKLLAAEVKDKKTGEILRKRCAVHWVTPDGFPVWQEYKKPIQTRLNLMFLGQFRLQPTINTNKDSEIDAHKQESGIAPNFVHSQDGSHLRKTVVWAHEKYGIESFALIHDSFGTIPADAANLFKAVRETMVDTYESCDVLADFYDQFADQLHESQLDKMPALPAKGNLNLRDILESDFAFA | little noise; also recorded: noise was low

Entries after “also recorded” stand apart in the source; their conditions may differ.
